Results from US7927581B2, “Peptide-based multimeric targeted contrast agents” (Factor 1A, LLC, priority 2001, dated 2011).
At least one structure is not confirmed: it was looked up by name or label, or the drawing left a doubt. Positions of bridges follow the written chain, without caps; N, C: chain ends. Non-standard residues stand in square brackets, D forms with d. Residues, ends and D or L forms follow the SMILES beside them. Tyr(3-I) = N[C@@H](Cc1ccc(O)c(I)c1)C(=O)O; Hyp = O=C(O)[C@@H]1C[C@@H](O)CN1

Chains of the proteins cited; added tags and fusions are not shown. Residues count along the entry.
UniProt P02671, 124-216: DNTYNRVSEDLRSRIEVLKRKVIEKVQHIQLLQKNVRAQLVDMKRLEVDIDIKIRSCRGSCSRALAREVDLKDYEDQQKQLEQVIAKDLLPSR
UniProt P02671, 36-97: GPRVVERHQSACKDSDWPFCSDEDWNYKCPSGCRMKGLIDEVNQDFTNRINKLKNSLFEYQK
UniProt P02675, 164-491: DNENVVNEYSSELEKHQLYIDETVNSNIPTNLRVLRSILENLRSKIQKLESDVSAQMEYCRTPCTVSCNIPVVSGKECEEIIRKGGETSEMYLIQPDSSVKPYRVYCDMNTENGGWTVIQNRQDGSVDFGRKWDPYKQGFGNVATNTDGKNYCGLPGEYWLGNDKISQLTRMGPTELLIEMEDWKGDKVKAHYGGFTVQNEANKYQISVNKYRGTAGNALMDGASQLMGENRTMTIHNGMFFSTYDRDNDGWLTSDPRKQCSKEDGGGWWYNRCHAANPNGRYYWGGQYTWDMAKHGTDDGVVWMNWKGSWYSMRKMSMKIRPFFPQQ
UniProt P02675, 45-152: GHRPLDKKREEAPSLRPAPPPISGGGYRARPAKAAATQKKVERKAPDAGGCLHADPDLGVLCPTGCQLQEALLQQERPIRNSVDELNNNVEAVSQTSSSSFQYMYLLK
UniProt P02679, 114-432: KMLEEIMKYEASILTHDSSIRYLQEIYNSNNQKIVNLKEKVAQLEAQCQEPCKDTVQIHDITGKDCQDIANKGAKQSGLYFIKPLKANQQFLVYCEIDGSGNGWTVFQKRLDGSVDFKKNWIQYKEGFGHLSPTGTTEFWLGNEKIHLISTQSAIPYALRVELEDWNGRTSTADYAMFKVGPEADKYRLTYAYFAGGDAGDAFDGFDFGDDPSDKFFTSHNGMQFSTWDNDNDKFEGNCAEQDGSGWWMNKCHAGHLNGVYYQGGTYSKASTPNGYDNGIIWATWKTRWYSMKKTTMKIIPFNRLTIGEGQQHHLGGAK
UniProt P02679, 27-88: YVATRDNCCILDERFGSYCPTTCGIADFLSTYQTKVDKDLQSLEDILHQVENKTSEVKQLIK

What follows are compounds tested against DD(E) fragment of fibrin (Homo sapiens, UniProt P02671+P02675+P02679) (assay: Affinity of cyclized peptides to the DD(E) fragment of fibrin).
Format: binding

`CC[C@H](C)[C@H](NC(=O)[C@H](Cc1c[nH]cn1)NC(=O)[C@@H]1CSSC[C@H](NC(=O)[C@H](Cc2c[nH]cn2)NC(=O)[C@@H](N)Cc2ccc(OC)cc2)C(=O)N2C[C@H](O)C[C@H]2C(=O)N[C@@H](Cc2ccc(O)c(I)c2)C(=O)N[C@@H](CC(=O)O)C(=O)N[C@@H](CC(C)C)C(=O)N1)C(N)=O` [F(4-OMe) H C Hyp Y(3-I) D L C H I] (H-Y(Me)HC[Hyp][Tyr(3-I)]DLCHI-NH2; disulfide 3-8; N-terminus and C-terminus assumed) and `CC[C@H](C)[C@H](NC(=O)[C@H](Cc1c[nH]cn1)NC(=O)[C@@H]1CSSC[C@H](NC(=O)[C@H](Cc2c[nH]cn2)NC(=O)[C@@H](N)Cc2ccc(C)cc2)C(=O)N2C[C@H](O)C[C@H]2C(=O)N[C@@H](Cc2ccc(O)c(I)c2)C(=O)N[C@@H](CC(=O)O)C(=O)N[C@@H](CC(C)C)C(=O)N1)C(N)=O` [F(4-Me) H C Hyp Y(3-I) D L C H I] (HELM PEPTIDE1{[Cc1ccc(C[C@H](N)C(=O)[*:2])cc1].H.C.[Hyp].[O=C([C@H](Cc1ccc(O)c(I)c1)N[*:1])[*:2]].D.L.C.H.I.[am]}$PEPTIDE1,PEPTIDE1,3:R3-8:R3$$$V2.0; N-terminus and C-terminus assumed) cannot be ordered by Kd: at most 0.1 µM for the first, at most 0.1 µM for the second.

`CC[C@H](C)[C@H](NC(=O)[C@H](Cc1c[nH]cn1)NC(=O)[C@@H]1CSSC[C@H](NC(=O)[C@H](Cc2c[nH]cn2)NC(=O)[C@@H](N)Cc2c(F)c(F)c(F)c(F)c2F)C(=O)N2C[C@H](O)C[C@H]2C(=O)N[C@@H](Cc2ccc(O)c(I)c2)C(=O)N[C@@H](CC(=O)O)C(=O)N[C@@H](CC(C)C)C(=O)N1)C(N)=O` [F(F5) H C Hyp Y(3-I) D L C H I] (HELM PEPTIDE1{[N[C@@H](Cc1c(F)c(F)c(F)c(F)c1F)C(=O)[*:2]].H.C.[Hyp].[O=C([C@H](Cc1ccc(O)c(I)c1)N[*:1])[*:2]].D.L.C.H.I.[am]}$PEPTIDE1,PEPTIDE1,3:R3-8:R3$$$V2.0; N-terminus and C-terminus assumed) and `CC[C@H](C)[C@H](NC(=O)[C@H](Cc1c[nH]cn1)NC(=O)[C@@H]1CSSC[C@H](NC(=O)[C@H](Cc2c[nH]cn2)NC(=O)[C@@H](N)Cc2ccccc2)C(=O)N2C[C@H](O)C[C@H]2C(=O)N[C@@H](Cc2ccc(O)c(I)c2)C(=O)N[C@@H](CC(=O)O)C(=O)N[C@@H](CC(C)C)C(=O)N1)C(N)=O` [F H C Hyp Y(3-I) D L C H I] (HELM PEPTIDE1{F.H.C.[Hyp].[O=C([C@H](Cc1ccc(O)c(I)c1)N[*:1])[*:2]].D.L.C.H.I.[am]}$PEPTIDE1,PEPTIDE1,3:R3-8:R3$$$V2.0; N-terminus and C-terminus assumed) cannot be ordered by Kd: at most 0.1 µM for the first, at most 0.1 µM for the second.

`CC[C@H](C)[C@H](NC(=O)[C@H](Cc1c[nH]cn1)NC(=O)[C@@H]1CSSC[C@H](NC(=O)[C@H](Cc2c[nH]cn2)NC(=O)[C@@H](N)Cc2ccccc2)C(=O)N2C[C@H](O)C[C@H]2C(=O)N[C@@H](Cc2ccc(O)c(Cl)c2)C(=O)NCC(=O)N[C@@H](CC(C)C)C(=O)N1)C(=O)N[C@@H](CC(C)C)C(N)=O` [F H C Hyp Y(3-Cl) G L C H I L] (HELM PEPTIDE1{F.H.C.[Hyp].[O=C([C@H](Cc1ccc(O)c(Cl)c1)N[*:1])[*:2]].G.L.C.H.I.L.[am]}$PEPTIDE1,PEPTIDE1,3:R3-8:R3$$$V2.0; N-terminus and C-terminus assumed) and `CC[C@H](C)[C@H](NC(=O)[C@H](Cc1c[nH]cn1)NC(=O)[C@@H]1CSSC[C@H](NC(=O)[C@H](Cc2c[nH]cn2)NC(=O)[C@@H](N)Cc2ccccc2)C(=O)N2C[C@H](O)C[C@H]2C(=O)N[C@@H](Cc2ccc(O)c(Cl)c2)C(=O)N[C@@H](CC(=O)O)C(=O)N[C@@H](CC(C)C)C(=O)N1)C(=O)N[C@@H](CC(C)C)C(N)=O` [F H C Hyp Y(3-Cl) D L C H I L] (HELM PEPTIDE1{F.H.C.[Hyp].[O=C([C@H](Cc1ccc(O)c(Cl)c1)N[*:1])[*:2]].D.L.C.H.I.L.[am]}$PEPTIDE1,PEPTIDE1,3:R3-8:R3$$$V2.0; N-terminus and C-terminus assumed) cannot be ordered by Kd: at most 0.4 µM for the first, at most 0.1 µM for the second.

`CC[C@H](C)[C@H](NC(=O)[C@H](Cc1ccncc1)NC(=O)[C@@H]1CSSC[C@H](NC(=O)[C@H](Cc2c[nH]cn2)NC(=O)[C@@H](N)Cc2ccccc2)C(=O)N2C[C@H](O)C[C@H]2C(=O)N[C@@H](Cc2ccc(O)c(I)c2)C(=O)N[C@@H](CC(=O)O)C(=O)N[C@@H](CC(C)C)C(=O)N1)C(N)=O` [F H C Hyp Y(3-I) D L C 4Pal I] (HELM PEPTIDE1{F.H.C.[Hyp].[O=C([C@H](Cc1ccc(O)c(I)c1)N[*:1])[*:2]].D.L.C.[O=C([C@H](Cc1ccncc1)N[*:1])[*:2]].I.[am]}$PEPTIDE1,PEPTIDE1,3:R3-8:R3$$$V2.0; N-terminus and C-terminus assumed) and `CC[C@H](C)[C@H](NC(=O)[C@H](Cc1c[nH]cn1)NC(=O)[C@@H]1CSSC[C@H](NC(=O)[C@H](Cc2c[nH]c3ccccc23)NC(=O)[C@@H](N)Cc2ccc(OC)cc2)C(=O)N2C[C@H](O)C[C@H]2C(=O)N[C@@H](Cc2ccc(O)c(I)c2)C(=O)N[C@@H](CC(=O)O)C(=O)N[C@@H](CC(C)C)C(=O)N1)C(N)=O` [F(4-OMe) W C Hyp Y(3-I) D L C H I] (H-Y(Me)WC[Hyp][Tyr(3-I)]DLCHI-NH2; disulfide 3-8; N-terminus and C-terminus assumed) cannot be ordered by Kd: at most 0.2 µM for the first, at most 0.5 µM for the second.

`CCc1ccc(C[C@H](NC(=O)[C@H](Cc2c[nH]cn2)NC(=O)[C@@H]2CSSC[C@H](NC(=O)[C@H](Cc3c[nH]cn3)NC(=O)[C@@H](N)Cc3ccccc3)C(=O)N3C[C@H](O)C[C@H]3C(=O)N[C@@H](Cc3ccc(O)c(I)c3)C(=O)N[C@@H](CC(=O)O)C(=O)N[C@@H](CC(C)C)C(=O)N2)C(N)=O)cc1` [F H C Hyp Y(3-I) D L C H F(4-Et)] (HELM PEPTIDE1{F.H.C.[Hyp].[O=C([C@H](Cc1ccc(O)c(I)c1)N[*:1])[*:2]].D.L.C.H.[CCc1ccc(C[C@H](N[*:1])C(=O)[*:2])cc1].[am]}$PEPTIDE1,PEPTIDE1,3:R3-8:R3$$$V2.0; N-terminus and C-terminus assumed) and `CC(C)C[C@@H]1NC(=O)[C@H](CC(=O)O)NC(=O)[C@H](Cc2ccc(O)c(I)c2)NC(=O)[C@@H]2C[C@@H](O)CN2C(=O)[C@@H](NC(=O)[C@H](Cc2c[nH]cn2)NC(=O)[C@@H](N)Cc2ccccc2)CSSC[C@@H](C(=O)N[C@@H](Cc2c[nH]cn2)C(=O)N[C@@H](CCc2ccccc2)C(N)=O)NC1=O` [F H C Hyp Y(3-I) D L C H Hfe] (HELM PEPTIDE1{F.H.C.[Hyp].[O=C([C@H](Cc1ccc(O)c(I)c1)N[*:1])[*:2]].D.L.C.H.[O=C([C@H](CCc1ccccc1)N[*:1])[*:2]].[am]}$PEPTIDE1,PEPTIDE1,3:R3-8:R3$$$V2.0; N-terminus and C-terminus assumed) cannot be ordered by Kd: at most 0.1 µM for the first, at most 0.1 µM for the second.

`CC[C@H](C)[C@H](NC(=O)[C@H](Cc1ccc(O)cc1)NC(=O)[C@@H]1CSSC[C@H](NC(=O)[C@H](CCC(=O)O)NC(=O)[C@@H](N)Cc2ccc(O)cc2)C(=O)N2C[C@H](O)C[C@H]2C(=O)N[C@@H](Cc2ccc(O)c(Cl)c2)C(=O)NCC(=O)N[C@@H](CC(C)C)C(=O)N1)C(=O)N[C@@H](CCC(N)=O)C(N)=O` [Y E C Hyp Y(3-Cl) G L C Y I Q] (HELM PEPTIDE1{Y.E.C.[Hyp].[O=C([C@H](Cc1ccc(O)c(Cl)c1)N[*:1])[*:2]].G.L.C.Y.I.Q.[am]}$PEPTIDE1,PEPTIDE1,3:R3-8:R3$$$V2.0; N-terminus and C-terminus assumed) and `CC[C@H](C)[C@H](NC(=O)[C@H](Cc1c[nH]c2ccccc12)NC(=O)[C@@H]1CSSC[C@H](NC(=O)[C@@H](CCC(=O)O)NC(=O)[C@@H](N)CO)C(=O)N2C[C@H](O)C[C@H]2C(=O)N[C@@H](Cc2ccc(O)c(Cl)c2)C(=O)NCC(=O)N[C@@H](CC(C)C)C(=O)N1)C(=O)N[C@@H](CCC(N)=O)C(N)=O` [S D-E C Hyp Y(3-Cl) G L C W I Q] (HELM PEPTIDE1{S.[dE].C.[Hyp].[O=C([C@H](Cc1ccc(O)c(Cl)c1)N[*:1])[*:2]].G.L.C.W.I.Q.[am]}$PEPTIDE1,PEPTIDE1,3:R3-8:R3$$$V2.0; N-terminus and C-terminus assumed) cannot be ordered by Kd: at most 0.2 µM for the first, at most 0.2 µM for the second.

`CC[C@H](C)[C@H](NC(=O)[C@H](Cc1c[nH]cn1)NC(=O)[C@@H]1CSSC[C@H](NC(=O)[C@H](Cc2c[nH]cn2)NC(=O)[C@@H](N)Cc2ccccc2)C(=O)N2C[C@H](O)C[C@H]2C(=O)N[C@@H](Cc2ccc(O)c(F)c2)C(=O)N[C@@H](CC(=O)O)C(=O)N[C@@H](CC(C)C)C(=O)N1)C(=O)N[C@@H](CC(C)C)C(N)=O` [F H C Hyp Y(3-F) D L C H I L] (HELM PEPTIDE1{F.H.C.[Hyp].[O=C([C@H](Cc1ccc(O)c(F)c1)N[*:1])[*:2]].D.L.C.H.I.L.[am]}$PEPTIDE1,PEPTIDE1,3:R3-8:R3$$$V2.0; N-terminus and C-terminus assumed) and `CC[C@H](C)[C@H](NC(=O)[C@H](Cc1c[nH]cn1)NC(=O)[C@@H]1CSSC[C@H](NC(=O)[C@H](Cc2c[nH]cn2)NC(=O)[C@@H](N)CCc2ccccc2)C(=O)N2C[C@H](O)C[C@H]2C(=O)N[C@@H](Cc2ccc(O)cc2)C(=O)N[C@@H](CC(=O)O)C(=O)N[C@@H](CC(C)C)C(=O)N1)C(=O)N[C@@H](CC(C)C)C(N)=O` [Hfe H C Hyp Y D L C H I L] (HELM PEPTIDE1{[N[C@@H](CCc1ccccc1)C(=O)[*:2]].H.C.[Hyp].Y.D.L.C.H.I.L.[am]}$PEPTIDE1,PEPTIDE1,3:R3-8:R3$$$V2.0; N-terminus and C-terminus assumed) cannot be ordered by Kd: at most 0.1 µM for the first, at most 0.5 µM for the second.

For `CC[C@H](C)[C@H](NC(=O)[C@H](Cc1c[nH]cn1)NC(=O)[C@@H]1CSSC[C@H](NC(=O)[C@H](Cc2c[nH]cn2)NC(=O)[C@@H](N)Cc2ccc(-c3ccccc3)cc2)C(=O)N2C[C@H](O)C[C@H]2C(=O)N[C@@H](Cc2ccc(O)cc2)C(=O)N[C@@H](CC(=O)O)C(=O)N[C@@H](CC(C)C)C(=O)N1)C(=O)N[C@@H](CC(C)C)C(N)=O` [Bip H C Hyp Y D L C H I L] (HELM PEPTIDE1{[N[C@@H](Cc1ccc(-c2ccccc2)cc1)C(=O)[*:2]].H.C.[Hyp].Y.D.L.C.H.I.L.[am]}$PEPTIDE1,PEPTIDE1,3:R3-8:R3$$$V2.0; N-terminus and C-terminus assumed), the Kd was at most 0.5 µM.
